Measurements taken from patent publication US10435371B2, “Multifunctional aminoquinoline therapeutic agent” (LOHOCLA RESEARCH CORPORATION, priority 2014, dated 2019).
pKi: −log10 of the molar value. Like-named read-outs stand apart in the source and are kept apart here. Some entries share one result that the patent states for a list of compounds.

Experiments:
[1] = target: α4β2 (Adrenergic Rs (alpha adrenergic)) (Rattus norvegicus, UniProt P09483+P12390); assay: PDSP radioligand binding; settings: read-out: Ki, α4β2 (lack of affinity)
5-HT2A (Serotonin Rs) = 5-HT2A (Serotonin Rs) (UniProt P28223); assay: PDSP radioligand binding; settings: read-out: Ki, 5-HT2A (lack of affinity); Table 3, the 6th table r8c0
KOR (κ opiate receptor) = KOR (κ opiate receptor) (UniProt P41145); assay: PDSP radioligand binding, [^3H]U69593; settings: read-out: Ki, κ opiate receptor (lack of affinity); Table 3, the 6th table r10c1
[2] = target: Kainate (Ionotropic glutamate Rs); assay: PDSP radioligand binding; settings: Table 3, the 6th table r20c1; read-out: Ki, Kainate (lack of affinity)
[3] = target: NMDA channel binding site (Ionotropic glutamate Rs); assay: PDSP radioligand binding; settings: Table 3, the 6th table r19c1; read-out: Ki, NMDA channel binding site (lack of affinity)
[4] = Table 3, the 6th table r16c0 (first α4β2 line)
[5] = Table 3, the 6th table r17c0 (second α4β2 line)

Measured: pKi

O=C(O)c1cc(NC(=O)N(c2ccccc2)c2ccccc2)c2c(Cl)cc(Cl)cc2n1 [DCUKA, 5,7-dichloro-4-(3,3-diphenylureido)quinoline-2-carboxylic acid]
< 5.00: [1]; [4] | [1]; [5] | 5-HT2A (Serotonin Rs) | KOR (κ opiate receptor) | [2] | [3]

CCCCN(CCCC)C(=O)Nc1cc(C(=O)O)nc2cc(Cl)cc(Cl)c12 [BCUKA, 5,7-dichloro-4-(3,3-dibutylureido)quinoline-2-carboxylic acid]
< 5.00: [1]; [4] | [1]; [5] | 5-HT2A (Serotonin Rs) | KOR (κ opiate receptor) | [2] | [3]
